No constants are given. Whether binding was seen depends on the method and setting. Binding seen in cells or lysates may run through a third protein. Tags and fused reporters may be left off the sequences shown.
Assays:
[1] = biological target: adeno-A2A receptor fused to a nanoluciferase (human) (UniProt P29274); assay: FRET or BRET; saturation BRET; constant 20 nM BR1-NLuc or Adora-NLuc plasmid coexpressed with 0-50 nM BR2-mCitrine plasmid in Sf21 cell-free lysate; Nano-Glo substrate added to 5 µL vesicular fraction; n = 3
[2] = biological target: gastric inhibitory polypeptide receptor (UniProt P48546); assay: proximity ligation; proteins coexpressed in Sf21 cell-free lysate; vesicular fraction in sucrose on IBIDI µ-slides; Duolink in situ Red kit Mouse/Rabbit with primary antibodies to BR1, BR2 or His-tag; confocal laser scanning microscopy
[3] = biological target: glucagon-like peptide 1 receptor (UniProt P43220); assay: as above
[4] = biological target: nicotinic acetylcholine receptor subunit delta (UniProt Q07001); assay: as above

Chains of the proteins cited; added tags and fusions are not shown. Lines headed by an entry give the natural chain unless they say otherwise; changes in a name come on top.
UniProt P48546: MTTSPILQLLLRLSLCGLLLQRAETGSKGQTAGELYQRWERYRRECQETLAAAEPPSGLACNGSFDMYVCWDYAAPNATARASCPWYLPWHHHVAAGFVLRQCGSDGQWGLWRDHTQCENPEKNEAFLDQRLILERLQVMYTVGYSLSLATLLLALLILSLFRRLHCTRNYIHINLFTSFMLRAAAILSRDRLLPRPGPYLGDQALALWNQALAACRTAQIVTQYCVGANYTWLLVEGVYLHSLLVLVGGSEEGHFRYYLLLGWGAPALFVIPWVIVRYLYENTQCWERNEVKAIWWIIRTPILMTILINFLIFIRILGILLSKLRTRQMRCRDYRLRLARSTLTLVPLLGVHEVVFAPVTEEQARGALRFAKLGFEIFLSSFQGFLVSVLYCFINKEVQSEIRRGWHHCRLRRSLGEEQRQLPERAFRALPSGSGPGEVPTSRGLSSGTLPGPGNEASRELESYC
UniProt P43220: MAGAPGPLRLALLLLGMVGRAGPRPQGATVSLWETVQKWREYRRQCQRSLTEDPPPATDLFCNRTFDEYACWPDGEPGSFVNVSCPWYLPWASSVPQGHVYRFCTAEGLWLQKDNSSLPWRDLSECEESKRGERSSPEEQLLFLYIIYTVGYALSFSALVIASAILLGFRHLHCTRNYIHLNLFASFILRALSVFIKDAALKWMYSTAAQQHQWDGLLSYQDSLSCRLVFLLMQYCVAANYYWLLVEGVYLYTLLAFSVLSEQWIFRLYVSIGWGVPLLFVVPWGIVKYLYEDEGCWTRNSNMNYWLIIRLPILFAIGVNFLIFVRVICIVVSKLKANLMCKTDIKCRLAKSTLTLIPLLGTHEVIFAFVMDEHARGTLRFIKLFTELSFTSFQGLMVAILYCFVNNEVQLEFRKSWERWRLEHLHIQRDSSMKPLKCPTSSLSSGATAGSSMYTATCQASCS

Measured: binding

B1: GABAB subunit 2 fused with a fluorescent mCitrine (receptor, UniProt O75899 42-941)
chain: WARGAPRPPPSSPPLSIMGLMPLTKEVAKGSIGRGVLPAVELAIEQIRNESLLRPYFLDLRLYDTECDNAKGLKAFYDAIKYGPNHLMVFGGVCPSVTSIIAESLQGWNLVQLSFAATTPVLADKKKYPYFFRTVPSDNAVNPAILKLLKHYQWKRVGTLTQDVQRFSEVRNDLTGVLYGEDIEISDTESFSNDPCTSVKKLKGNDVRIILGQFDQNMAAKVFCCAYEENMYGSKYQWIIPGWYEPSWWEQVHTEANSSRCLRKNLLAAMEGYIGVDFEPLSSKQIKTISGKTPQQYEREYNNKRSGVGPSKFHGYAYDGIWVIAKTLQRAMETLHASSRHQRIQDFNYTDHTLGRIILNAMNETNFFGVTGQVVFRNGERMGTIKFTQFQDSREVKVGEYNAVADTLEIINDTIRFQGSEPPKDKTIILEQLRKISLPLYSILSALTILGMIMASAFLFFNIKNRNQKLIKMSSPYMNNLIILGGMLSYASIFLFGLDGSFVSEKTFETLCTVRTWILTVGYTTAFGAMFAKTWRVHAIFKNVKMKKKIIKDQKLLVIVGGMLLIDLCILICWQAVDPLRRTVEKYSMEPDPAGRDISIRPLLEHCENTHMTIWLGIVYAYKGLLMLFGCFLAWETRNVSIPALNDSKYIGMSVYNVGIMCIIGAAVSFLTRDQPNVQFCIVALVIIFCSTITLCLVFVPKLITLRTNPDAATQNRRFQFTQNQKKEDSKTSTSVTSVNQASTSRLEGLQSENHRLRMKITELDKDLEEVTMQLQDTPEKTTYIKQNHYQELNDILNLGNFTESTDGGKAILKNHLDQNPQLQWNTTEPSRTCKDPIEDINSPEHIQRRLSLQLPILHHAYLPSIGGVDASCVSPCVSPTASPRHRHVPPSFRVMVSGL
no binding: all assays above
